Assay results: PubChem BioAssay AID1347075 (National Center for Advancing Translational Sciences (NCATS), 2019)
Hit rate of the full screen: of about 400,000 compounds, about 5,500 (1.4%) were called active. The shares of active, inactive and inconclusive entries below differ from those in the screen. The call rests on the fitted dose curve; in most records, active means well fitted cell-killing curve with a large enough effect; inconclusive means small, poorly fitted or top-dose-only effect, or effect the other way; inactive means flat fitted curve, though single readings scatter. Potencies beside an inconclusive call are fits to weak or partial responses and may not hold up.
Potency means the concentration at half of the fitted maximal effect.

Assay: qHTS assay for MDR1-selective chemotherapeutics: Primary screen using the parental adenocarcinoma cell KB-3-1; further: nearly all actives have a fitted effect of over 60% in size
Details: KB-3-1 viability, CellTiter-Glo ATP luminescence, 72 h; series mostly up to 46.1 µM
Outline: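 Parental KB-3-1 viability, qHTS format: 72 h compound exposure, 37 °C; CellTiter-Glo; media-only wells and DMSO plates as controls; concentration-effect fits on corrected data.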
With O=C(c1ccc(C(F)(F)F)cc1)C1CCCN(Cc2ccncc2)C1 (configuration not stated) the Potency was inconclusive: 2.31 µM [cytotoxic, full curve].
With COC(=O)C1=C(c2ccc(-c3ccccc3)c(F)c2)C[C@@H]2CC[C@H]1N2C(=O)NCCNC(C)=O the Potency was “inactive”.
In the case of CCOCC1(CCc2ccccc2)C(=O)NC(=S)NC1=O, the Potency is reported as “inactive”.
In the case of COc1ccc(-n2nnnc2C(c2ccccc2)N2CCC3(CC2)C(=O)NCN3c2ccccc2)cc1 (configuration not stated), the Potency is reported as inconclusive: 29.1 µM [cytotoxic, single point].
For O=C(c1cc2nc(-c3ccccc3)cc(-c3ccccc3)n2n1)N1CCC2(CC1)OCCO2, the Potency was inconclusive: 29.1 µM [cytotoxic, single point].
For N#Cc1c(/N=C/c2ccc(O)cc2O)sc2c1C1CCN2CC1, the Potency was inconclusive: 20.6 µM [rising, partial curve].
For Cn1c(NN=O)nc2ccccc21, the Potency was inconclusive: 16.4 µM [cytotoxic, single point].
In the case of COc1cccc(C(c2nnnn2Cc2ccccc2)N2CCC3(CC2)C(=O)NCN3c2ccccc2)c1OC (configuration not stated), the Potency is reported as “inactive”.
With CCC(=NCCCO)c1c(O)n(-c2ccc(OC)cc2)c(=O)[nH]c1=O the Potency was “inactive”.
In the case of N#CC1=C(N)Oc2c(c(=O)sc3ccccc23)C1c1ccncc1 (configuration not stated), the Potency is reported as inconclusive: 29.1 µM [cytotoxic, single point].
In the case of CCCNS(=O)(=O)c1ccc(OCC(=O)N2CCN(Cc3ccccc3)CC2)cc1, the Potency is reported as inconclusive: 18.4 µM [cytotoxic, single point].
In the case of CCC12CN3CC(CC)(CN(C1)C3c1c(C)[nH]c(=O)[nH]c1=O)C2=O (configuration not stated), the Potency is reported as “inactive”.
In the case of Cc1ccc(C(O)(c2ccc(C)c(C)c2)C2CN3CCC2CC3)cc1C (configuration not stated), the Potency is reported as inconclusive: 23.1 µM [cytotoxic, single point].
For COC(=O)C(Cc1ccc(N(CCCl)CCCl)cc1)N=Cc1ccccc1O (configuration not stated), the Potency was inconclusive: 9.2 µM [cytotoxic, partial curve, poor fit].
In the case of COC(=O)C1=C(c2ccc(F)cc2OCc2ccccc2)C[C@@H]2CC[C@H]1N2C(=O)NCc1ccc(F)cc1, the Potency is reported as inconclusive: 29.1 µM [cytotoxic, single point].
In the case of CC(O)(CS(=O)(=O)c1cccc(C(F)(F)F)c1)C(=O)Nc1ccc(C(F)(F)F)cc1 (configuration not stated), the Potency is reported as inconclusive: 23.1 µM [cytotoxic, partial curve, poor fit].
With CCC1CN2CCc3cc(OC)c(OC)cc3C2CC1CC1NCCc2c1[nH]c1ccc(O)cc21 (configuration not stated) the Potency was active: 0.411 µM.
For O=c1[nH]c2ccccc2n1C1CCN(Cc2ccc(-c3nc4ccccc4nc3-c3ccccc3)cc2)CC1, the Potency was inconclusive: 29.1 µM [cytotoxic, single point].
In the case of CCOC(=O)[C@]12Cc3ccc4ccccc4c3[C@H]1N(Cc1ccccc1)C(=O)c1ccccc12, the Potency is reported as inconclusive: 29.1 µM [cytotoxic, single point].
In the case of Nc1ccc2ccccc2c1, the Potency is reported as “inactive”.
For Cc1cccc(-n2c(/C=C/c3ccc([N+](=O)[O-])o3)nc3ccccc3c2=O)c1, the Potency was active: 10.3 µM.
In the case of Cc1cccc(N2C(=O)NC(=O)/C(=C\c3cccn3-c3ccc(Cl)cc3)C2=O)c1, the Potency is reported as inconclusive: 32.6 µM [cytotoxic, single point].
In the case of C=C1C(=O)O[C@H]2C[C@@H](C)[C@@H]3C=CC(=O)[C@@]3(C)C[C@H]12, the Potency is reported as inconclusive: 2.91 µM [cytotoxic, partial curve, poor fit].
In the case of COC(=O)C1=C(c2cc3ccccc3s2)C[C@@H]2CC[C@H]1N2C(=O)NCc1cccc2ccccc12, the Potency is reported as inconclusive: 29.1 µM [cytotoxic, single point].
For COC(=O)C1=C(c2ccc(Cl)c(C(F)(F)F)c2)C[C@@H]2CC[C@H]1N2C(=O)NCCOc1ccccc1, the Potency was “inactive”.
With COC(=O)c1ccccc1OP(=O)(c1cccc([N+](=O)[O-])c1)c1cccc([N+](=O)[O-])c1 the Potency was inconclusive: 0.92 µM [rising, partial curve].
In the case of COC(=O)C1=C(c2ccc(F)cc2F)C[C@@H]2CC[C@H]1N2C(=O)N1CCC(O)(c2ccc(Cl)cc2)CC1, the Potency is reported as inconclusive: 16.4 µM [cytotoxic, single point].
With CC[C@@H](O)C[C@H]1CCC[C@@]2(C[C@@H]3OC(=O)/C=C/[C@@](C)(O)[C@@H](O)[C@H](C)[C@@H](O)[C@H](OC4CCC(N(C)C)C(C)O4)[C@@H](O)[C@](C)(O)CCCCC/C=C/[C@@H]4CC(C)(C)O[C@@]4(O)C[C@H](O2)[C@H]3C)O1 (some centres not stated) the Potency was active: 0.164 µM.
In the case of O=C1NC(=O)N(Cc2ccc(F)cc2)C(=O)/C1=C/c1cccs1, the Potency is reported as “inactive”.
In the case of COC(=O)C1=C(c2cccc(OCc3ccccc3)c2)C[C@@H]2CC[C@H]1N2C(=O)NCc1cc(C)oc1C(F)(F)F, the Potency is reported as inconclusive: 29.1 µM [cytotoxic, single point].
For O=C(Cc1ccccc1)OCn1nnc2ccccc2c1=O, the Potency was “inactive”.
With CCOc1cc2c(cc1OCC)-n1cccc1C(c1ccc(C)cc1C)NC2 (configuration not stated) the Potency was inconclusive: 20.6 µM [cytotoxic, single point].
